Library screen at single concentrations

Sequences of proteins named here, by UniProt entry; tags and fusion partners are left off. Residues count along the entry.
UniProt I6X8D2, whole entry: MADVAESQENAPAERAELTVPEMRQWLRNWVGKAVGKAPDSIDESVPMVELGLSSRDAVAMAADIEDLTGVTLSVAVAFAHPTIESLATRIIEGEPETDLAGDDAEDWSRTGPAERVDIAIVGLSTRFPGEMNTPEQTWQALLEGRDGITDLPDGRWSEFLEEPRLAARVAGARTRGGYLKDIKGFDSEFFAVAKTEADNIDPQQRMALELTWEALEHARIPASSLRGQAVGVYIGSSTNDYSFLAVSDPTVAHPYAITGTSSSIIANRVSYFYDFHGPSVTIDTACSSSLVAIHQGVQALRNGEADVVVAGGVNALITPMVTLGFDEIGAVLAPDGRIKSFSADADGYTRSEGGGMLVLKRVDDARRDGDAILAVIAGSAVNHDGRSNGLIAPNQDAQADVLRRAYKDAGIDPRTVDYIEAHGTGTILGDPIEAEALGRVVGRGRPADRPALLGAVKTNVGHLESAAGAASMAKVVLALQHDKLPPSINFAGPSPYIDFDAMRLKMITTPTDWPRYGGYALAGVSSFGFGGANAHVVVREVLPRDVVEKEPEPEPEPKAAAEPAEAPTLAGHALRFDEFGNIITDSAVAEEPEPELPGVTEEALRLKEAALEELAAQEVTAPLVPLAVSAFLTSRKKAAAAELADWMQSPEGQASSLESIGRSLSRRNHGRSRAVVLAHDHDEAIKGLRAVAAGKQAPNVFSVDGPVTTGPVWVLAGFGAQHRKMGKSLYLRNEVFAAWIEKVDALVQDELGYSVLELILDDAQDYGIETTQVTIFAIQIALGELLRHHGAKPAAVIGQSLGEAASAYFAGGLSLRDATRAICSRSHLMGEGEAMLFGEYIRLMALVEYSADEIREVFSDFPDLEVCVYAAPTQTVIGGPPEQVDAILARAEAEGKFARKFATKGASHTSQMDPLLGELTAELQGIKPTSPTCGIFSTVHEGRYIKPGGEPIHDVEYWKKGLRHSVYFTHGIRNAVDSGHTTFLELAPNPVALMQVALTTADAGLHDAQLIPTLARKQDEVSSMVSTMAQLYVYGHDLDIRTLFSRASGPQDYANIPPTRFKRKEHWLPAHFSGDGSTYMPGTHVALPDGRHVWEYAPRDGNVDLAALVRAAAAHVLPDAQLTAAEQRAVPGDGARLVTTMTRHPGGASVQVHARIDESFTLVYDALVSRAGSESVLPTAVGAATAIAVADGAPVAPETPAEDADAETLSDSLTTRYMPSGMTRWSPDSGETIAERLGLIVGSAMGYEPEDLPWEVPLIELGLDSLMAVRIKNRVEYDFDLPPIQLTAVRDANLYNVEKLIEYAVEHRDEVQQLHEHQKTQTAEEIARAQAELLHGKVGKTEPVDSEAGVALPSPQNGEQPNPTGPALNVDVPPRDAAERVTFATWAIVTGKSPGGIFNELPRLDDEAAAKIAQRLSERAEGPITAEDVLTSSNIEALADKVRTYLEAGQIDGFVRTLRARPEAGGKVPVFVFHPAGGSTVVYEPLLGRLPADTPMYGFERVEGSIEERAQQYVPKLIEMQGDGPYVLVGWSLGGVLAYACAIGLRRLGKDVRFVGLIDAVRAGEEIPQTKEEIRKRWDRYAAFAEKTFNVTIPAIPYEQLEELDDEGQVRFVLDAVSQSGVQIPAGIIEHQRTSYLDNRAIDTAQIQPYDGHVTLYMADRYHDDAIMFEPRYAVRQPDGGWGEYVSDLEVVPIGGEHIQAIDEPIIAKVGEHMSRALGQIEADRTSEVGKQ
UniProt A4I591, 1-473: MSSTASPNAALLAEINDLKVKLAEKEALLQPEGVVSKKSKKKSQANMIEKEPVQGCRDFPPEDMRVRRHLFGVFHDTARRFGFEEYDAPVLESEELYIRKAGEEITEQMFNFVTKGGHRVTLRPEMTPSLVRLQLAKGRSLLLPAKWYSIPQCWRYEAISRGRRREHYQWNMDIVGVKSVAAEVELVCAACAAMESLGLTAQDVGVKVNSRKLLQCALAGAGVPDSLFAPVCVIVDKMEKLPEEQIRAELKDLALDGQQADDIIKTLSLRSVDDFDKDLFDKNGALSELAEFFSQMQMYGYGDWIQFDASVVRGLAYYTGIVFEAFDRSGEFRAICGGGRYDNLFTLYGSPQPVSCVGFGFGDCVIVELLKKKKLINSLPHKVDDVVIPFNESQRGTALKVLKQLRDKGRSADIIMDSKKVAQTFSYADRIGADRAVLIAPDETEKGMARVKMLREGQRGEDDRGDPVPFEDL

Source: ChEMBL document CHEMBL3988442, “University of Dundee, Small-Polar-MMV Screening Library” (2021).

Each number is a percent effect as filed. The controls that fix the scale are not given in the record; negative values are as filed. This is an unselected part of the compounds tested. A dash means the value is not listed here; it may have been measured.

Pks13 thioesterase: 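Polyketide synthase Pks13, Mycobacterium tuberculosis (UniProt I6X8D2). Enzyme assay of the thioesterase domain of polyketide synthase 13; the read-out is not stated. Tested at 30 µM. The record gives no direction; the compounds picked for IC50 retests had high values, so higher reads as stronger inhibition. Size under these conditions: about 67,000 compounds, about 300 of them at 50% or above in at least one test.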
LiHisRS: 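Histidine-tRNA ligase, Leishmania infantum (UniProt A4I591). Enzyme assay of histidyl-tRNA synthetase; the read-out is not stated. Concentration: 30 µM. Higher reads as stronger inhibition (inferred: compounds with an IC50 in retests scored well above the rest). The assay is labelled LdHisRS but filed under L. infantum. Of about 69,000 compounds tested this way, about 410 (0.6%) reached 50% or more in at least one test.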

| compound | Pks13 thioesterase | LiHisRS |
|---|---|---|
| `c1coc(CN2C[C@@H]3OCCN(CC4CCCO4)[C@@H]3C2)c1` (some centres undefined) | -15.11 | 21.1 |
| `COc1ccc2c(c1)nc1n2[C@@H](CNCc2cnn(C)c2)COC1` | -25.95 | 5.556 |
| `c1cnn(CCN2CCOC(Cn3cncn3)C2)c1` (centres undefined) | -29.45 | 10.11 |
| `CC(C)CNC(=O)CN(CC(=O)NCC(C)C)S(C)(=O)=O` | -11.48 | 16.33 |
| `CC(C)(C)c1cc(CNC(=O)c2cc(COc3ccccc3)[nH]n2)[nH]n1` | 2.905 | 19.47 |
| `CC(C)C(C)(O)CNC(=O)Nc1ccccn1` (centres undefined) | -34.85 | 2.618 |
| `O=C(CN1CCCC(c2ccn[nH]2)C1)Nc1nc2c(s1)CCCC2` (centres undefined) | -41.88 | 12.82 |
| `Cc1cnc(N2C(=O)CSC2c2ccc(N(C)C)cc2)s1` (centres undefined) | -84.03 | 19.54 |
| `O=C(COc1coc(CN2CCCCCC2)cc1=O)c1ccccc1` | -27.58 | 14.29 |
| `CCN(C)S(=O)(=O)NCC(C)(O)c1ccsc1` (centres undefined) | -13.33 | 12.5 |
| `N#Cc1ccc(CN2CCCC(Cn3cncn3)C2)c(F)c1` (centres undefined) | 4.607 | -2.618 |
| `Cc1oc(-c2ccco2)nc1CN1CCc2cnc(C(C)C)nc2C1` | 11.62 | 8.235 |
| `CN(C)C(=O)COC1COC2(CCN(c3cccc(F)c3)CC2)C1` (centres undefined) | -24.99 | 29.41 |
| `CSCCC(Nc1nc(C)cc(C)n1)C(=O)NCC1CCOCC1` (centres undefined) | -16.73 | 19.57 |
| `O=S1(=O)COCCN1Cc1ccc(F)cc1Cl` | -1.268 | 6.742 |
| `COc1cccc(Cn2cc(C3=CCN(CCO)CC3)cn2)c1` | -24.27 | 6.993 |
| `c1cncc(-c2noc(CN3CCc4cncnc4C3)n2)c1` | - | 22.02 |
| `OC1(CNC2CCN(Cc3ccncc3)CC2)CCc2ccccc21` (centres undefined) | -26.38 | 5.128 |
| `CCN(C)c1ccc(CNC(=O)c2cc(C(N)=O)cs2)cc1F` | -38.75 | 14.17 |
| `CC(=O)N1CCC(NC(=O)N2CCCC2c2ccsc2)CC1` (centres undefined) | -23.35 | 6.897 |
| `Cc1ccc(C(=O)N2CCCC(c3nncn3C)C2)c(C)c1` (centres undefined) | -8.571 | 13.27 |
| `CCc1nnc2n1CCN(C(C(=O)NC1CC1)c1ccc(F)cc1)C2` (centres undefined) | - | -3.371 |
| `CN(CC1Cc2ccccc2CN1C)C(=O)CSc1ccccn1` (centres undefined) | -18.96 | 14.29 |
| `COc1ccc(NC(=O)CCC2CCCN(Cc3ncon3)C2)cc1Cl` (centres undefined) | -24.49 | 20.39 |
| `CCCN1CCN(C(=O)Cn2nc(C(F)(F)F)c(Br)c2C2CC2)CC1` | -0.7065 | 20.88 |
| `CCOC(=O)NCCNC(=O)c1cc2ccccc2nc1N1CCCC1` | 3.591 | 18.92 |
| `Cc1noc(C)c1S(=O)(=O)N1CCC(n2cccn2)CC1` | -37.1 | 10.36 |
| `CCC(=O)NCC(=O)NC(Cc1ccccc1)c1sccc1C` (centres undefined) | -6.651 | 27.4 |
| `O=C(NCCSC1CCCC1)c1cnccn1` | -21.74 | 0 |
| `CCc1nc(C)sc1C(=O)N1CCN(c2ncccc2C)CC1` | -26.68 | 16.39 |
| `CSc1c(CC(=O)O)n(C)c2ccccc12` | -4.745 | 12.09 |
| `O=C(c1ccoc1)N1CCCC2(CCC(=O)N2Cc2cccnc2)C1` (centres undefined) | -39.05 | 22.81 |
| `CN(C)C(=O)Cn1cc(C(=O)NCCc2ccc(Cl)cc2Cl)nn1` | 36.2 | 10.71 |
| `CC(C)c1n[nH]c(C2CN(C(=O)COc3ccc(F)cc3)CCO2)n1` (centres undefined) | -3.489 | 3.261 |
| `CCC(=O)N1CCC2(CC1)CNC(=O)c1cc(C)ccc1O2` | -7.959 | 6 |
| `CCN(C(c1ccc(OC)cc1)c1cccnc1)S(C)(=O)=O` (centres undefined) | -23.14 | 11.11 |
| `CC(Nc1cccc(CN2CCOC2=O)c1)C(=O)N1CCNC1=O` (centres undefined) | -5.399 | 0 |
| `Cc1cncc(C2CCCN(C(=O)c3cnco3)C2)n1` (centres undefined) | 20.9 | 13.04 |
| `O=C(CCn1ccccc1=O)Nc1ccc(F)c(Cl)c1` | -1.325 | 15.09 |
| `Cn1cc(CN2CC[C@H]3[C@H]2CC(=O)N3Cc2ccncc2)cn1` | -14.53 | -0.9174 |
| `CCN(CC)C(=O)[C@@H]1C[C@H](N)CN1C(=O)c1cc2c([nH]c1=O)CCC2` | 9.569 | 20.55 |
| `Cc1cccc(C(=O)N(CCCO)S(=O)(=O)c2cccs2)c1` | 2.498 | -8.571 |
| `CC(C)n1cnc2c1C(C(=O)NCCO)N(Cc1ccccc1)CC2` (centres undefined) | -36.69 | 8.571 |
| `O=C(CN1CCOCC1)N1CCC(c2cc(N3CCCC3)ncn2)CC1` | -19.77 | 10 |
| `Cc1cc(NC(=O)N2CCN(C)CC2C)n(Cc2ccccc2)n1` (centres undefined) | - | 26.03 |
| `CC1CCCN(C(=O)CNC(=O)c2ccoc2)C1` (centres undefined) | -30.55 | -3.419 |
| `CCCc1cc(=O)[nH]c2nnc(SCC(=O)OCC)n12` | -9.614 | 9.917 |
| `c1ccc(-c2nc(CN3CCCC3Cn3cncn3)no2)cc1` (centres undefined) | -10.74 | 23.21 |
| `COCc1ccc(C(=O)N(CCC#N)Cc2ccccn2)cc1` | -18.28 | 9.821 |
| `O=C(c1cscn1)N1CCC[C@]2(C[C@H](OCC3CC3)CO2)C1` | -33.16 | 8.029 |
| `Cn1cc(CN2CCC(F)(F)C3(CCN(c4ncccn4)C3)C2)cn1` (centres undefined) | -3.202 | 12.33 |
| `Cc1cc(C(=O)NCC(O)c2ccc(Cl)s2)c(C)o1` (centres undefined) | -1.862 | 16.67 |
| `CC(CN1CCCC1=O)NC(=O)Nc1ccccc1Cn1cccn1` (centres undefined) | -35.42 | 16.67 |
| `CNC(=O)[C@@]12CCO[C@@H]1CCN(S(=O)(=O)c1cccnc1)C2` | -33.45 | 10.53 |
| `Cc1ccc(CS(=O)(=O)Cc2nc(N)nc(N(C)C)n2)cc1` | -28.12 | 18.42 |
| `Cc1nc(CN2CCN(C3CCOC3)Cc3cccnc32)cs1` (centres undefined) | -4.052 | 7.965 |
| `CCC1=N[C@@]2(CC[C@@H]3CN(Cc4cccc(Cl)c4)C[C@@H]32)C(=O)N1C` | -19.17 | 19.09 |
| `CCCN1CCC(NC(=O)c2csc(C)c2-c2ccc(C)cc2)CC1` | -26.41 | 17.86 |
| `CC1CS(=O)(=O)CCN1Cc1ccccc1N(C)C` (centres undefined) | -5.977 | 16.44 |
| `CCc1noc(CN2CCN(C(=O)OC(C)(C)C)C(C)C2)n1` (centres undefined) | - | 2.073 |
| `Cc1cc(F)ccc1N1CCCC(NC(=O)CCCn2ccnc2)C1` (centres undefined) | - | 10.84 |
| `CCc1nc(CN(C)CC2CCN(CC(C)O)CC2)no1` (centres undefined) | -19.11 | 9.615 |
| `Cn1c(N2CCOCC2)nc2cc(C(=O)N3CCCOCC3)ccc21` | -15.47 | 16.05 |
| `NC(=O)C1=NC2=NS(=O)(=O)c3ccccc3N2N1Cc1ccc(Cl)cc1` | -66.78 | 58.06 |
| `O=C(c1cscn1)N1CCCC2(CCN2Cc2cccc(F)c2)C1` (centres undefined) | -3.888 | 11.71 |
| `Cc1noc(C)c1CN(C)C(=O)c1ccc2c(c1O)OC(C)(C)C2` | -22.5 | 8.621 |
| `CCOc1ccc(NC2CCN(C)C2=O)cn1` (centres undefined) | -2.325 | 35.48 |
| `COc1ccc(C)cc1C(C)NC(=O)NCCCn1cncn1` (centres undefined) | -7.647 | 20.27 |
| `COCCN1CCc2c(CNC(=O)c3nccn3C)cncc2C1` | 1.117 | 6 |
| `Cc1ccc(NC2CCCN(Cc3ccc(Cl)cc3)C2)nn1` (centres undefined) | 1.724 | 28.72 |
| `CNC(=O)CN1CCC(CN(C)Cc2ccc(C)cc2C)CC1` | -14.99 | 2.041 |
| `COc1ccc(NC(=O)CSc2nc(C)c(C)c(C)c2C#N)cn1` | -53.11 | 15.83 |
| `O=C(c1cc(C2CC2)[nH]n1)N1CCN(c2nccs2)CC1` | -0.03884 | 7.895 |
| `CC(=O)N[C@@H]1CN(C2CCN(c3cccc(C)c3C)CC2)C[C@H]1C(C)C` | 9.324 | 10.53 |
| `CSc1ccc(OCCN2CCNC(=O)C2C)cc1` (centres undefined) | -7.471 | 20.48 |
| `CC(C)Cc1noc(CN2CCN(C(=O)c3cccc(F)c3)CC2)n1` | -3.407 | 5.714 |
| `O=C(O)c1cc(S(=O)(=O)Nc2ccc(F)cc2F)cc2c1OCCO2` | -16.71 | 9.821 |
| `Cc1ccc(S(=O)(=O)NC(=O)C2(c3ccc(F)cc3)CCC2)c(C)c1` | 3.855 | 18.37 |
| `Cn1ccnc1CN1CCCC2(CCN(CC3CCCO3)CC2)C1` (centres undefined) | -14.45 | 17.43 |
| `CCN(CCc1nc2cc(C)ccc2[nH]1)C(=O)[C@@H](N)COC` | 7.396 | -19.18 |
| `COc1ccc2c(c1)CN(Cc1nc3ccsc3c(=O)[nH]1)CC2` | -72.68 | -25.84 |

For reference, 5 entries once more:

compound,Pks13 thioesterase,LiHisRS
COc1ccc(C)cc1C(C)NC(=O)NCCCn1cncn1 (centres undefined),-7.647,20.27
CC1CS(=O)(=O)CCN1Cc1ccccc1N(C)C (centres undefined),-5.977,16.44
N#Cc1ccc(CN2CCCC(Cn3cncn3)C2)c(F)c1 (centres undefined),4.607,-2.618
Cc1cnc(N2C(=O)CSC2c2ccc(N(C)C)cc2)s1 (centres undefined),-84.03,19.54
CC(C)C(C)(O)CNC(=O)Nc1ccccn1 (centres undefined),-34.85,2.618